These are yes or no findings as the source states them, for the method shown. In cells and extracts the contact can be indirect. A result given as binding can be weak or reduced; the word gives no strength. Where a sequence is shown, tags or fusion partners need not be part of it.

The target in this assay is HSP70 (human (endogenous in H1299)). Briefly: co-IP; H1299 transiently transfected with Myc-iASPP; RIPA lysate centrifuged, diluted 1:4 with IP buffer; endogenous HSP70 precipitated with anti-HSP70 and Protein G Dynabeads, anti-Myc blot.

B1: Myc-tagged iASPP Y747X (domain or fragment, UniProt Q8WUF5 2-746)
chain: DSEAFQSARDFLDMNFQSLAMKHMDLKQMELDTAAAKVDELTKQLESLWSDSPAPPGPQAGPPSRPPRYSSSSIPEPFGSRGSPRKAATDGADTPFGRSESAPTLHPYSPLSPKGRPSSPRTPLYLQPDAYGSLDRATSPRPRAFDGAGSSLGRAPSPRPGPGPLRQQGPPTPFDFLGRAGSPRGSPLAEGPQAFFPERGPSPRPPATAYDAPASAFGSSLLGSGGSAFAPPLRAQDDLTLRRRPPKAWNESDLDVAYEKKPSQTASYERLDVFARPASPSLQLLPWRESSLDGLGGTGKDNLTSATLPRNYKVSPLASDRRSDAGSYRRSLGSAGPSGTLPRSWQPVSRIPMPPSSPQPRGAPRQRPIPLSMIFKLQNAFWEHGASRAMLPGSPLFTRAPPPKLQPQPQPQPQPQSQPQPQLPPQPQTQPQTPTPAPQHPQQTWPPVNEGPPKPPTELEPEPEIEGLLTPVLEAGDVDEGPVARPLSPTRLQPALPPEAQSVPELEEVARVLAEIPRPLKRRGSMEQAPAVALPPTHKKQYQQIISRLFHRHGGPGPGGPEPELSPITEGSEARAGPPAPAPPAPIPPPAPSQSSPPEQPQSMEMRSVLRKAGSPRKARRARLNPLVLLLDAALTGELEVVQQAVKEMNDPSQPNEEGITALHNAICGANYSIVDFLITAGANVNSPDSHGWTPLHCAASCNDTVICMALVQHGAAIFATTLSDGATAFEKCDPYREGYADCAT
Turning to B1, the binding result is “binds”.

B2: Myc-tagged iASPP A620P (protein, UniProt Q8WUF5 2-828)
chain: DSEAFQSARDFLDMNFQSLAMKHMDLKQMELDTAAAKVDELTKQLESLWSDSPAPPGPQAGPPSRPPRYSSSSIPEPFGSRGSPRKAATDGADTPFGRSESAPTLHPYSPLSPKGRPSSPRTPLYLQPDAYGSLDRATSPRPRAFDGAGSSLGRAPSPRPGPGPLRQQGPPTPFDFLGRAGSPRGSPLAEGPQAFFPERGPSPRPPATAYDAPASAFGSSLLGSGGSAFAPPLRAQDDLTLRRRPPKAWNESDLDVAYEKKPSQTASYERLDVFARPASPSLQLLPWRESSLDGLGGTGKDNLTSATLPRNYKVSPLASDRRSDAGSYRRSLGSAGPSGTLPRSWQPVSRIPMPPSSPQPRGAPRQRPIPLSMIFKLQNAFWEHGASRAMLPGSPLFTRAPPPKLQPQPQPQPQPQSQPQPQLPPQPQTQPQTPTPAPQHPQQTWPPVNEGPPKPPTELEPEPEIEGLLTPVLEAGDVDEGPVARPLSPTRLQPALPPEAQSVPELEEVARVLAEIPRPLKRRGSMEQAPAVALPPTHKKQYQQIISRLFHRHGGPGPGGPEPELSPITEGSEARAGPPAPAPPAPIPPPAPSQSSPPEQPQSMEMRSVLRKAGSPRKPRRARLNPLVLLLDAALTGELEVVQQAVKEMNDPSQPNEEGITALHNAICGANYSIVDFLITAGANVNSPDSHGWTPLHCAASCNDTVICMALVQHGAAIFATTLSDGATAFEKCDPYREGYADCATYLADVEQSMGLMNSGAVYALWDYSAEFGDELSFREGESVTVLRRDGPEETDWWWAALHGQEGYVPRNYFGLFPRVKPQRSKV
In the case of B2, the binding result is given as “no binding”.
